Measurements reported in article PMC5436826, “The PET and LIM1-2 domains of testin contribute to intramolecular and homodimeric interactions” (PLoS ONE, 2017).
No constants are given. Whether binding was seen depends on the method and setting. A result given as binding can be weak or reduced; the word gives no strength. Tags and fused reporters may be left off the sequences shown.

Tests used:
[1] = target: GST-LIM1-2 of testin (first 2 LIM domains, coupled to a HIS tag) (human); assay: pull-down; GST-tagged bait immobilised on glutathione sepharose (25 μl), 5 μg untagged prey in solution, 2 h at 4°C in buffer A (25 mM Hepes pH 7.6, 150 mM NaCl, protease inhibitors); three washes; resin analysed by Western blot or Coomassie; both purified
[2] = target: GST-LIM1-3 of testin (human); assay: as above

Row | Binder | binding [1] | binding [2]
1 | untagged PET^52-233 of testin (amino acids 52-233) (domain or fragment, UniProt Q9UGI8-1 52-233) DVLLSNEEDRKVGKLFEDTKYTTLIAKLKSDGIPMYKRNVMILTNPVAAKKNVSINTVTYEWAPPVQNQALARQYMQMLPKEKQPVAGSEGAQYRKKQLAKQLPAHDQDPSKCHELSPREVKEMEQFVKKYKSEALGVGDVKLPCEMDAQGPKQMNIPGGDRSTPAAVGAMEDKSAEHKRTQ | binds | binds
2 | untagged PET^52-199 of testin (amino acids 52-199) (domain or fragment, UniProt Q9UGI8-1 52-199) DVLLSNEEDRKVGKLFEDTKYTTLIAKLKSDGIPMYKRNVMILTNPVAAKKNVSINTVTYEWAPPVQNQALARQYMQMLPKEKQPVAGSEGAQYRKKQLAKQLPAHDQDPSKCHELSPREVKEMEQFVKKYKSEALGVGDVKLPCEMD | no binding (tested: 5 μg prey) | no binding (tested: 5 μg prey)
3 | untagged PET^92-233 of testin (amino acids 92-233) (domain or fragment, UniProt Q9UGI8-1 92-233) MILTNPVAAKKNVSINTVTYEWAPPVQNQALARQYMQMLPKEKQPVAGSEGAQYRKKQLAKQLPAHDQDPSKCHELSPREVKEMEQFVKKYKSEALGVGDVKLPCEMDAQGPKQMNIPGGDRSTPAAVGAMEDKSAEHKRTQ | no binding (tested: 5 μg prey) | no binding (tested: 5 μg prey)
4 | untagged PET^92-199 of testin (amino acids 92-199) (domain or fragment, UniProt Q9UGI8-1 92-199) MILTNPVAAKKNVSINTVTYEWAPPVQNQALARQYMQMLPKEKQPVAGSEGAQYRKKQLAKQLPAHDQDPSKCHELSPREVKEMEQFVKKYKSEALGVGDVKLPCEMD | no binding (tested: 5 μg prey) | no binding (tested: 5 μg prey)
